Where “and” joins values, the source holds several entries; their conditions need not be identical. Identical values can stand only once. The list shows a part of the results. For some of these results: Construct or isoform of the protein are uncertain.
Assays:
Assay in all cases: protein microarray (ProtoArray v5.0), streptavidin-Alexa Fluor 647
Conditions in all cases: 3'-biotin; 20 mM Tris (pH 7.5), 5 mM MgCl2, 100 mM KCl, 0.1% Tween-20, A/T-rich and random oligonucleotide blockers; temperature not stated; high values mean tight binding
EIF3S6 = EIF3S6 (UniProt P60228)
EIF4EBP3 = target: T1, EIF4EBP3 (UniProt O60516)
T1 sequence: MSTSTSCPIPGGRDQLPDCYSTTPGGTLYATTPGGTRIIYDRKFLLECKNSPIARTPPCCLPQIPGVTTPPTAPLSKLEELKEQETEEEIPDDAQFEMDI

Protein sequences, listed by entry. Tags and fused reporters are not part of them.
UniProt P60228, whole entry: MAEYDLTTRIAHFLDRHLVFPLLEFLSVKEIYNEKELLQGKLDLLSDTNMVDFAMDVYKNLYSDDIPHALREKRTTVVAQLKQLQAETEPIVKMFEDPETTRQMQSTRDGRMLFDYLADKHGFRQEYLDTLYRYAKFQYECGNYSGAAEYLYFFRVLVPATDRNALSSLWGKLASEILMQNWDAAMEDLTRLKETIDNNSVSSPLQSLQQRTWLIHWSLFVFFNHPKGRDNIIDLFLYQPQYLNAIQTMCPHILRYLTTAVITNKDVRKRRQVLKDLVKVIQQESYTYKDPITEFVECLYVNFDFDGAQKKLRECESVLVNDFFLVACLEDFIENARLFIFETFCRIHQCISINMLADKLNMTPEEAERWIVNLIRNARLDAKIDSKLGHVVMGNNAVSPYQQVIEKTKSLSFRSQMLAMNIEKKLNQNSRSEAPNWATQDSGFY

EIF5A2 (human) = tested on: EIF5A2 (human)
ELA3A (human) = tested on: ELA3A (human)
EMILIN1 (human) = tested on: EMILIN1 (human)
ENO2 (human) = tested on: ENO2 (human)
ENTPD1 (human) = tested on: ENTPD1 (human)
EP400NL (human) = tested on: EP400NL (human)
ERCC6L (human) = tested on: ERCC6L (human)
ETFB (human) = tested on: ETFB (human)

GGTGACAGGGGTATGGGGAGGGG [G4-2 biotinylated (Ct1)]
binding signal (EIF3S6): -0.393 z-score | binding signal (EIF4EBP3): -0.36 z-score | binding signal (EIF5A2 (human)): -0.379 z-score | binding signal (ELA3A (human)): -0.376 z-score and -0.39 z-score | binding signal (EMILIN1 (human)): -0.395 z-score | binding signal (ENO2 (human)): -0.38 z-score | binding signal (ENTPD1 (human)): -0.368 z-score | binding signal (EP400NL (human)): -0.391 z-score | binding signal (ERCC6L (human)): -0.39 z-score | binding signal (ETFB (human)): -0.379 z-score
